Melanoma cell counts after drug treatment

From a melanoma drug combination screen (doi:10.1371/journal.pone.0140310); values rounded.

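The test systems are human melanoma cell lines, treated with a single drug for 72 h and then stained and imaged. Values are the number of DAPI-stained nuclei as a percentage of the DMSO control: 100 is no effect, lower means fewer cells. Concentrations were fixed for each drug; these are the higher of two levels. The file gives one value for each drug and line, without errors, so small differences may be noise.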 This is part of the screen, not chosen by result.

Drug | LB2518-MEL | C32 | IST-MEL1 | WM1716 | IPC-298 | COLO 792 | MEL-HO | A2058 | COLO 800 | LOX IMVI | MeWo | UACC-257
Oc1nc(-c2ccc(C(F)(F)F)cc2)nc2c1CSCC2 at 10000 nM | 79.0 | 86.8 | 91.3 | 55.9 | 99.6 | 85.2 | 83.3 | 84.2 | 90.4 | 96.6 | 86.2 | 94.8
COC(=O)c1sccc1S(=O)(=O)Nc1ccc(Nc2ccccc2)cc1OC at 5000 nM | 88.5 | 102 | 95.3 | 87.1 | 97.4 | 109 | 93.5 | 94.6 | 60.2 | 105 | 101 | 88.8
C#Cc1cccc(Nc2ncnc3cc(OCCOC)c(OCCOC)cc23)c1 at 4000 nM | 68.0 | 115 | 96.3 | 84.9 | 67.7 | 60.1 | 86.2 | 82.5 | 142 | 65.3 | 81.2 | 112
C[C@@H](Oc1cc(-c2cnn(C3CCNCC3)c2)cnc1N)c1c(Cl)ccc(F)c1Cl at 1000 nM | 84.7 | 95.3 | 106 | 83.7 | 77.9 | 78.2 | 90.5 | 78.6 | 47.9 | 108 | 73.1 | 82.2
NC1(c2ccc(-c3nc4ccn5c(=O)[nH]nc5c4cc3-c3ccccc3)cc2)CCC1 at 2000 nM | 66.5 | 65.3 | 76.1 | 66.4 | 87.9 | 45.6 | 67.3 | 65.5 | 66.5 | 77.8 | 70.1 | 86.8
C=CCn1c(=O)c2cnc(Nc3ccc(N4CCN(C)CC4)cc3)nc2n1-c1cccc(C(C)(C)O)n1 at 100 nM | 60.4 | 97.4 | 93.6 | 80.6 | 84.6 | 84.2 | 90.2 | 97.3 | 64.5 | 79.2 | 82.6 | 78.5
OCCn1cc(-c2cnc3nnn(Cc4ccc5ncccc5c4)c3n2)cn1 at 5000 nM | 105 | 101 | 91.9 | 98.0 | 126 | 116 | 110 | 118 | 86.8 | 84.6 | 98.3 | 109
CC1(C)NC(=O)N(c2ccc([N+](=O)[O-])c(C(F)(F)F)c2)C1=O at 5000 nM | 90.0 | 123 | 111 | 115 | 115 | 153 | 113 | 134 | 105 | 102 | 120 | 112
O=C(Nc1ccccc1)c1cc([N+](=O)[O-])ccc1Cl at 10000 nM | 91.4 | 91.4 | 97.8 | 99.1 | 99.9 | 93.0 | 82.6 | 94.2 | 76.9 | 57.4 | 78.0 | 74.8
COc1ccc2c(c1)CCC1C2CCC2(C)C(NCCCCCCN3C(=O)C=CC3=O)CCC12 (stereo unspecified) at 2000 nM | 90.4 | 71.4 | 87.2 | 80.1 | 94.4 | 104 | 91.6 | 69.2 | 91.1 | 73.1 | 63.6 | 99.9
Cc1cc([N+](=O)[O-])ccc1NS(=O)(=O)c1cc(Cl)ccc1Cl at 5000 nM | 76.6 | 76.4 | 50.3 | 84.4 | 44.1 | 78.1 | 45.5 | 73.1 | 79.5 | 68.6 | 78.6 | 66.2
CO[C@H]1C[C@@H]2CC[C@@H](C)[C@@](O)(O2)C(=O)C(=O)N2CCCC[C@H]2C(=O)O[C@H]([C@H](C)C[C@@H]2CC[C@@H](OCCO)[C@H](OC)C2)CC(=O)[C@H](C)/C=C(\C)[C@@H](O)[C@@H](OC)C(=O)[C@H](C)C[C@H](C)/C=C/C=C/C=C/1C at 100 nM | 66.6 | 82.8 | 77.6 | 71.0 | 75.4 | 52.8 | 54.8 | 65.0 | 44.1 | 51.7 | 69.0 | 76.9
CNC(=O)c1cc(Oc2ccc(NC(=O)Nc3ccc(Cl)c(C(F)(F)F)c3)cc2)ccn1 at 2000 nM | 90.9 | 81.0 | 96.8 | 91.6 | 100 | 135 | 115 | 103 | 101 | 177 | 86.2 | 78.1
Cc1cc(N2CCOCC2)cc2[nH]c(-c3c(NC[C@@H](O)c4cccc(Cl)c4)cc[nH]c3=O)nc12 at 1000 nM | 119 | 89.5 | 77.7 | 97.0 | 95.2 | 61.0 | 81.7 | 96.4 | 37.5 | 72.9 | 81.4 | 103
CCCS(=O)(=O)Nc1ccc(F)c(C(=O)c2c[nH]c3ncc(Cl)cc23)c1F at 400 nM | 119 | 89.9 | 86.6 | 71.7 | 68.8 | 97.5 | 90.6 | 73.3 | 102 | 83.6 | 80.6 | 98.1
O=C(Nc1cccc(Cl)c1)Nc1ncc(CCNc2ncnc3ccsc23)s1 at 4 nM | 79.5 | 79.3 | 59.1 | 67.2 | 84.8 | 61.7 | 88.7 | 71.1 | 37.1 | 64.0 | 92.5 | 77.4
O=c1cc(-c2cccc3c2Sc2ccccc2S3)oc(N2CCOCC2)c1 at 5000 nM | 94.3 | 108 | 101 | 88.2 | 101 | 98.0 | 81.7 | 84.8 | 42.3 | 101 | 76.6 | 81.4
Clc1ccc(Nc2nnc(Cc3ccncc3)c3ccccc23)cc1 at 10000 nM | 112 | 97.0 | 61.8 | 85.0 | 70.3 | 72.3 | 50.7 | 60.2 | 61.5 | 41.1 | 66.8 | 72.2
N#CC[C@H](C1CCCC1)n1cc(-c2ncnc3[nH]ccc23)cn1 at 5000 nM | 155 | 118 | 86.9 | 87.1 | 98.1 | 90.4 | 68.2 | 79.4 | 115 | 136 | 96.8 | 84.9
Oc1cc(-c2nc(-c3ccccc3)[nH]c2-c2ccncc2)ccc1Cl at 1000 nM | 77.7 | 63.1 | 86.9 | 63.9 | 84.0 | 98.3 | 83.2 | 88.9 | 105 | 103 | 74.5 | 88.7
C[As](C)SC[C@H](NC(=O)CC[C@H](N)C(=O)O)C(=O)NCC(=O)O at 2000 nM | 78.5 | 83.2 | 75.3 | 76.7 | 96.4 | 83.1 | 83.2 | 66.9 | 58.5 | 73.2 | 77.0 | 97.1
CCN(CC)CCCCNc1ncc2cc(-c3cc(OC)cc(OC)c3)c(NC(=O)NC(C)(C)C)nc2n1 at 500 nM | 88.3 | 103 | 89.0 | 107 | 99.4 | 93.0 | 94.3 | 90.3 | 86.0 | 78.0 | 97.8 | 120
C[C@]1(O)C[C@@H](c2nc(-c3ccc4ccc(-c5ccccc5)nc4c3)c3c(N)nccn32)C1 at 2000 nM | 92.6 | 109 | 87.5 | 110 | 89.5 | 90.6 | 114 | 97.0 | 42.7 | 90.6 | 83.5 | 102
COc1cc(N2CCC(N3CCN(C)CC3)CC2)ccc1Nc1ncc(Cl)c(Nc2ccccc2S(=O)(=O)C(C)C)n1 at 400 nM | 99.7 | 89.3 | 94.4 | 86.6 | 88.5 | 77.8 | 78.5 | 54.0 | 75.8 | 125 | 74.2 | 78.7